The values that follow come from the supplement of paper PMC5662767.

The assay relates to Drosophila S2 cl14 SmoIP sensor cells. Put plainly: normalized SmoIP GFP fluorescence (untreated unstimulated = 0%, untreated Hh-stimulated = 100%); higher = more Smo activation sensor fluorescence. To be noted: compound concentration: 15 uM, 24 h.
[1] abbreviates: stimulation: Hh conditioned medium (+Hh).
Where [2] appears, read: stimulation: mock conditioned medium (-Hh).

Where a name gives a salt, the structure may show the parent alone. The list shows a part of the results. Baselines shift from plate to plate; read single values as rough.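 The clonal Drosophila S2 line carries Smoothened with a circularly permuted GFP inserted in its cytoplasmic tail, which fluoresces once Hh-driven phosphorylation opens an inhibitory loop. Per-cell fluorescence was read by flow cytometry, scaled to Hh-stimulated untreated cells. Hits were groups of inhibitors sharing pathway targets that shifted fluorescence consistently, not single compounds.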

For `CCOC(=O)C1=C(N)Oc2ccc(Br)cc2C1C(C#N)C(=O)OCC` (stereo unspecified), the “normalized SmoIP GFP fluorescence” value by setting is: under setting [1], 115%; under setting [2], 48.5%.

Consider `Cc1ccc(Nc2nccc(N(C)c3ccc4c(C)n(C)nc4c3)n2)cc1S(N)(=O)=O` [Pazopanib-Hydrochloride], for which the “normalized SmoIP GFP fluorescence” value is, setting by setting: under setting [1], 205%; under setting [2], 76.4%.

As for `CNC(=O)CN1CCC(Oc2cc3c(Nc4cccc(Cl)c4F)ncnc3cc2OC)CC1`, the “normalized SmoIP GFP fluorescence” value runs as follows: under setting [1], 180%; under setting [2], 43.6%.

Take `CCCSc1nc(N[C@@H]2C[C@H]2c2ccc(F)c(F)c2)c2nnn([C@@H]3C[C@H](OCCO)[C@@H](O)[C@H]3O)c2n1` [ticagrelor]: the “normalized SmoIP GFP fluorescence” value turned out to be 134% under setting [1] and 17.1% under setting [2].

With `C[C@@H](NCCc1ccc(O)cc1)[C@@H](O)c1ccc(O)cc1` [Ritodrine-hydrochloride-Yutopar], the “normalized SmoIP GFP fluorescence” value by setting is: under setting [1], 158%; under setting [2], -16.4%.

Take `COc1cc2c(cc1OC)CC(=O)N(CCCN(C)C[C@@H]1Cc3cc(OC)c(OC)cc31)CC2` [ivabradine-hcl-procoralan]: the “normalized SmoIP GFP fluorescence” value is, setting by setting: under setting [1], 123%; under setting [2], -4.35%.

Consider `NC1(Cc2ccc(Cl)cc2)CCN(c2ncnc3[nH]ccc23)CC1`, for which the “normalized SmoIP GFP fluorescence” value is, setting by setting: under setting [1], 121%; under setting [2], 47.5%.

Consider `Cc1ccc(NC(=O)c2cccc(N(C)C)c2)cc1NC(=O)c1ccc(O)cc1`, for which the “normalized SmoIP GFP fluorescence” value by setting is: under setting [1], 106%; under setting [2], -11.7%.

For the molecule `COc1nc(C)cnc1NS(=O)(=O)c1cccnc1-c1ccc(-c2nnco2)cc1` [Zibotentan(ZD4054)], the “normalized SmoIP GFP fluorescence” value is, setting by setting: under setting [1], 121%; under setting [2], -3.17%.

Regarding `CNC[C@H](O)c1cccc(O)c1` [Phenylephrine-hydrochloride], the “normalized SmoIP GFP fluorescence” value by setting is: under setting [1], 119%; under setting [2], -8.77%.

For `COc1ccc(-c2nc3ccc(C4=NNC(=O)CC4C)cc3[nH]2)cc1` (stereo unspecified) [Pimobendan(Vetmedin)], the “normalized SmoIP GFP fluorescence” value is 238% under setting [1] and 51.7% under setting [2].

On to `CNCCC(Oc1ccc(C(F)(F)F)cc1)c1ccccc1` (stereo unspecified) [Fluoxetine-hydrochloride], for which the “normalized SmoIP GFP fluorescence” value runs as follows: under setting [1], 148%; under setting [2], 35.5%.

As to `Cc1ccccc1C(=O)Nc1ccc(C(=O)N2CCCC(O)c3cc(Cl)ccc32)c(C)c1` (stereo unspecified), the “normalized SmoIP GFP fluorescence” value under setting [1] was 134% and the “normalized SmoIP GFP fluorescence” value under setting [2] is -2.82%.

As to `COC1CCN(C(=O)c2cc(Cc3n[nH]c(=O)c4ccccc34)ccc2F)CC1`, the “normalized SmoIP GFP fluorescence” value was 118% under setting [1] and -3.9% under setting [2].

As for `CNC(=O)c1ccc(-c2cnc3ncc(Cc4ccc5ncccc5c4)n3n2)cc1F`, the “normalized SmoIP GFP fluorescence” value under setting [1] came out at 144% and the “normalized SmoIP GFP fluorescence” value under setting [2] is 14.2%.

On to `NCCc1c[nH]cn1` [histamine-2hcl], for which the “normalized SmoIP GFP fluorescence” value was 114% under setting [1] and -0.775% under setting [2].

`CC1=C(C(=O)Nc2cc3cn[nH]c3cc2F)C(c2ccc(C(F)(F)F)cc2)CC(=O)N1` (stereo unspecified): the “normalized SmoIP GFP fluorescence” value under setting [1] worked out at 159% and the “normalized SmoIP GFP fluorescence” value under setting [2] came out at 6.2%.

For the molecule `CC(C)C[C@H](NC(=O)[C@@H](NC(=O)c1cccc(-c2ccccc2)n1)[C@@H](C)O)B(O)O`, the “normalized SmoIP GFP fluorescence” value was found to be 108% under setting [1] and 75.1% under setting [2].

With `O=C(NCc1ccc(Oc2ccccc2)cc1)c1nc(-c2cc(Br)c(O)c(Br)c2)no1` [iowh032], the “normalized SmoIP GFP fluorescence” value runs as follows: under setting [1], 154%; under setting [2], 27.5%.

For the molecule `Cc1cc(NC(=O)Nc2ccc(N(C)C)cc2)c2cc(F)cc(F)c2n1`, the “normalized SmoIP GFP fluorescence” value by setting is: under setting [1], 214%; under setting [2], 56.8%.

On to `NC(=O)[C@@H](CCC(F)(F)F)N(Cc1ccc(-c2ncon2)cc1F)S(=O)(=O)c1ccc(Cl)cc1`, for which the “normalized SmoIP GFP fluorescence” value under setting [1] is 145% and the “normalized SmoIP GFP fluorescence” value under setting [2] is 17.4%.

In the case of `CCCCCCCN(CC)CCCC(O)c1ccc(NS(C)(=O)=O)cc1` (stereo unspecified) [ibutilide-fumarate], the “normalized SmoIP GFP fluorescence” value is 182% under setting [1] and 9.08% under setting [2].

For the molecule `C[C@@H](N)[C@H]1CC[C@H](C(=O)Nc2ccncc2)CC1`, the “normalized SmoIP GFP fluorescence” value under setting [1] is 116% and the “normalized SmoIP GFP fluorescence” value under setting [2] was -8.56%.

For the molecule `CN1CCN(CCOc2cc(OC3CCOCC3)c3c(Nc4c(Cl)ccc5c4OCO5)ncnc3c2)CC1`, the “normalized SmoIP GFP fluorescence” value runs as follows: under setting [1], 221%; under setting [2], 69.4%.

Take `N#CC[C@H](C1CCCC1)n1cc(-c2ncnc3[nH]ccc23)cn1`: the “normalized SmoIP GFP fluorescence” value stood at 89% under setting [1] and 22.8% under setting [2].

As to `Clc1ccc2nsnc2c1NC1=NCCN1` [Tizanidine-hydrochloride], the “normalized SmoIP GFP fluorescence” value is, setting by setting: under setting [1], 137%; under setting [2], 7.06%.

In the case of `CNC(=O)c1cc(COc2nnc(Nc3ccc(Cl)cc3)c3ccoc23)ccn1` [Telatinib-BAY-57-9352], the “normalized SmoIP GFP fluorescence” value runs as follows: under setting [1], 221%; under setting [2], 90.3%.

Consider `Cc1cc(C)c(Nc2ccnc(Nc3ccc(C#N)cc3)n2)c(C)c1` [dapivirine], for which the “normalized SmoIP GFP fluorescence” value under setting [1] was 57.4% and the “normalized SmoIP GFP fluorescence” value under setting [2] is 43.3%.

Regarding `COc1cc2c(N3CCN(C(=O)Nc4ccc(OC(C)C)cc4)CC3)ncnc2cc1OCCCN1CCCCC1` [Tandutinib-(MLN518)], the “normalized SmoIP GFP fluorescence” value is 168% under setting [1] and 32% under setting [2].

As to `NC(=O)Nc1sc(-c2ccc(F)cc2)cc1C(N)=O` [tpca-1], the “normalized SmoIP GFP fluorescence” value came to 167% under setting [1] and 19.3% under setting [2].

In the case of `C[C@]12CCC(=O)C=C1[C@@H]1C[C@@H]1[C@H]1[C@@H]3[C@@H]4C[C@@H]4[C@@]4(CCC(=O)O4)[C@@]3(C)CC[C@@H]12` [Drospirenone], the “normalized SmoIP GFP fluorescence” value runs as follows: under setting [1], 192%; under setting [2], 48.9%.

As to `CCOc1cc(N)c(Cl)cc1C(=O)NCC1CN(Cc2ccc(F)cc2)CCO1` (stereo unspecified) [Mosapride-citrate], the “normalized SmoIP GFP fluorescence” value reads like this: under setting [1], 166%; under setting [2], 12.1%.

`COc1ccc(-c2cc3c(C)nc(N)nc3n([C@H]3CC[C@H](OCCO)CC3)c2=O)cn1`: the “normalized SmoIP GFP fluorescence” value is, setting by setting: under setting [1], 47.8%; under setting [2], -17.7%.
